From patent US12589101B2 (Regeneron Pharmaceuticals, Inc., priority 2017, dated 2026) come the findings set out here.

This data set is described as follows: general procedure: solution-phase peptide synthesis; HOBt/DIPEA. The conditions noted are these: conjugation step.

In the case of “{4-[(2S)-2-[(2S)-2-[1-(4-{2-Azatricyclo[10.4.0.0^4,9]hexadeca-1(12),4(9),5,7,13,15-hexaen-10-yn-2-yl}-4-oxobutanamido)-3,6,9,12-tetraoxapentadecan-15-amido]-3-methylbutanamido]-5-(carbamoylamino)pentanamido]phenyl}methyl N-[(1S)-1-{[(1S)-1-{[(3R,4S,5S)-1-[(2S)-2-[(1R,2R)-2-{[(1S,2R)-1-hydroxy-1-phenylpropan-2-yl]carbamoyl}-1-methoxy-2-methylethyl]pyrrolidin-1-yl]-3-methoxy-5-methyl-1-oxoheptan-4-yl](methyl)carbamoyl}-2-methylpropyl]carbamoyl}-2-methylpropyl]-N-methylcarbamate”, the “final HPLC purity” value is given as 98%.
